For one molecule, binding results are on record in paper doi:10.1101/323022.

In the experiment the target is T1, Tiam1 (mouse (endogenous in cochlea)), Q60610.
T1 chain: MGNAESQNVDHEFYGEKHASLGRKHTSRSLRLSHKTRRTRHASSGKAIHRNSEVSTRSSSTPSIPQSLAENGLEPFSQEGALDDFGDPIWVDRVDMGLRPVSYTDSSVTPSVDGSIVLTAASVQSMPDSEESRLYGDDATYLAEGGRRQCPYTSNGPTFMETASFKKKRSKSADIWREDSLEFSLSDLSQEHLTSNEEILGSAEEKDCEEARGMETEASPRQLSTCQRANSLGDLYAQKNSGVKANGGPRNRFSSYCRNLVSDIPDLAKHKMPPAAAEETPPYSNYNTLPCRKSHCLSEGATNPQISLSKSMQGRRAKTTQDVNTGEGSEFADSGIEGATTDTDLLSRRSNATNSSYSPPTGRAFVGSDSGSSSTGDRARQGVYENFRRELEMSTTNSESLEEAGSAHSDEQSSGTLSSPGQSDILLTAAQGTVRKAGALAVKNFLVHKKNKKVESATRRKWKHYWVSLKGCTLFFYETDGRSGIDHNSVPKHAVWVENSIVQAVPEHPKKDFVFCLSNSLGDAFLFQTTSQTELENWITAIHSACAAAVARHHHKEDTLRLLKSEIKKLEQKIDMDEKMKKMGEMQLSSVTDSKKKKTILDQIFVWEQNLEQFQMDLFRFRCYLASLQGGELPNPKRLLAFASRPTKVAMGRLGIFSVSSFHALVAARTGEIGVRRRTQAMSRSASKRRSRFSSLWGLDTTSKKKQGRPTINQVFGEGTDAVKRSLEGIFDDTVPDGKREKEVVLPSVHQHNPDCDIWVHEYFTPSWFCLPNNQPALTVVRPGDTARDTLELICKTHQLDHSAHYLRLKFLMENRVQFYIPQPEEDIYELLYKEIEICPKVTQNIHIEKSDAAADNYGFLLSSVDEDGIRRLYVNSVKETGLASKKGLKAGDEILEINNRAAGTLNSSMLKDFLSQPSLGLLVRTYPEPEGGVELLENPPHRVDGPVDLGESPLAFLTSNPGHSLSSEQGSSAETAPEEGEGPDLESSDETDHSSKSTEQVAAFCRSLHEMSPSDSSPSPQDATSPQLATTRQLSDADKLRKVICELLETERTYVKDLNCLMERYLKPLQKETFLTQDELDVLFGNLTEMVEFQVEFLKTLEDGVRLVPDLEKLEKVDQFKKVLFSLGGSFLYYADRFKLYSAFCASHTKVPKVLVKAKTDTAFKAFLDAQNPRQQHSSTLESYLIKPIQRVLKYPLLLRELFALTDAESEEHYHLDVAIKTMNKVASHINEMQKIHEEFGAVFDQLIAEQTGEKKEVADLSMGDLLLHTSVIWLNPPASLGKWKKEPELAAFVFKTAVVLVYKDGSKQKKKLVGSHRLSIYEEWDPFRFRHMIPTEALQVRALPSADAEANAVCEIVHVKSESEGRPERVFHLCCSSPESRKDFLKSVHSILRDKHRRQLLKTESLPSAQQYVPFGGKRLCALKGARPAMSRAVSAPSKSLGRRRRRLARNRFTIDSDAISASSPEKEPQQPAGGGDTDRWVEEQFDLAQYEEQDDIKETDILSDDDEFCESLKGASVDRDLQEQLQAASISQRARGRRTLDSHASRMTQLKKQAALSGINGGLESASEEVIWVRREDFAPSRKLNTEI
The experiment is described as follows: co-IP. The following applies: remark: other sources report otherwise.

No constants are given. Whether binding was seen depends on the method and setting. Binding seen in cells or lysates may run through a third protein. Some binding calls cover weakened binding; strength is not graded here.

B1: Par3, Q99NH2 1-1333 (protein)
chain: MKVTVCFGRTRVVVPCGDGRMKVFSLIQQAVTRYRKAVAKDPNYWIQVHRLEHGDGGILDLDDILCDVADDKDRLVAVFDEQDPHHGGDGTSASFTGTQSPEIFGSELGTNNVSAFQPYQATSEIEVTPSVLRANMPLHVRRSSDPALTGLSTSVSDNNFSSEEPSRKNPTRWSTTAGFLKQNTAGSPKTCDRKKDENYRSLPRDPSSWSNQFQRDNARSSLSASHPMVDRWLEKQEQDEEGTEEDSSRVEPVGHADTGLENMPNFSLDDMVKLVQVPNDGGPLGIHVVPFSARGGRTLGLLVKRLEKGGKAEQENLFHENDCIVRINDGDLRNRRFEQAQHMFRQAMRARVIWFHVVPAANKEQYEQLSQREKNNYSPGRFSPDSHCVANRSVANNAPQALPRAPRLSQPPEQLDAHPRLPHSAHASTKPPAAPALAPPSVLSTNVGSVYNTKKVGKRLNIQLKKGTEGLGFSITSRDVTIGGSAPIYVKNILPRGAAIQDGRLKAGDRLIEVNGVDLAGKSQEEVVSLLRSTKMEGTVSLLVFRQEEAFHPREMNAEPSQMQTPKETKAEDEDVVLTPDGTREFLTFEVPLNDSGSAGLGVSVKGNRSKENHADLGIFVKSIINGGAASKDGRLRVNDQLIAVNGESLLGKANQEAMETLRRSMSTEGNKRGMIQLIVARRISRCNELRSPGSPAAPELPIETELDDRERRISHSLYSGIEGLDESPTRNAALSRIMGKCQLSPTVNMPHDDTVMIEDDRLPVLPPHLSDQSSSSSHDDVGFIMTEAGTWAKATISDSADCSLSPDVDPVLAFQREGFGRQSMSEKRTKQFSDASQLDFVKTRKSKSMDLVADETKLNTVDDQRAGSPSRDVGPSLGLKKSSSLESLQTAVAEVTLNGNIPFHRPRPRIIRGRGCNESFRAAIDKSYDKPMVDDDDEGMETLEEDTEESSRSGRESVSTSSDQPSYSLERQMNGDPEKRDKTERKKDKAGKDKKKDREKEKDKLKAKKGMLKGLGDMFRFGKHRKDDKMEKMGRIKIQDSFTSEEDRVRMKEEQERIQAKTREFRERQARERDYAEIQDFHRTFGCDDELLYGGMSSYEGCLALNARPQSPREGHLMDTLYAQVKKPRSSKPGDSNRSTPSNHDRIQRLRQEFQQAKQDEDVEDRRRTYSFEQSWSSSRPASQSGRHSVSVEVQVQRQRQEERESFQQAQRQYSSLPRQSRKNASSISQDSWEQNYAPGEGFQSAKENPRYSSYQGSRNGYLGGHGFNARVMLETQELLRQEQRRKEQQLKKQPPADGVRGPFRQDVPPSPSQVARLNRLQTPEKGRPFYS
Regarding B1, the binding result was “binds”.
